Assay results: PubChem BioAssay AID662 (National Center for Advancing Translational Sciences (NCATS), 2007)
“And” between values parts separate entries of the source, which are not always exact repeats. Equal entries are not always repeated. The list shows a part of the results. Shown are side measurements of this screen, not its main read-out; they come without a call. Compounds called inactive in the main read-out are mostly missing here. Potencies come from curve fits of mixed quality, noted in brackets.

Assay: Cell signaling CRE-BLA (Fsk stim)
Conditions: CHO CRE-bla reporter (cAMP response element driving beta-lactamase), forskolin EC10, beta-lactamase ratio; measured here: 460 nm blue channel
Summary of the method: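 Cells were plated overnight at 37 °C, exposed to compound titrations plus EC10 NKH 477 for 3 h, then given CCF4 dye for 2 h at room temperature. Blue/green (460/530 nm) ratio was converted to %Activity and AC50 values calculated.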
For `Cc1ccc(S(=O)(=O)Nc2nc(C)cc(NCCN)n2)cc1`, the AC50 was 0.00316 µM [falling, full curve, poor fit].
For `Cc1nnc(NC(=O)CSc2nc3c(c(=O)n2C)SC(C)C3)s1` (stereo not drawn), the AC50 was 10 µM [rising, single point].
With `COCCn1c(C)cc(C(=O)COC(=O)c2ccc3ncsc3c2)c1C` the AC50 was 0.00794 µM [falling, full curve, poor fit].
For `COc1ccc(CC(=O)N(Cc2cc3cc(OC)ccc3[nH]c2=O)C(C)C)cc1`, the AC50 was 12.6 µM [rising, single point].
For `O=C(C1CCC1)N(CCc1ccccc1)Cc1nc2ccccc2c(=O)[nH]1`, the AC50 was 0.01 µM [falling, full curve, poor fit].
With `Cc1cc(C)nc(-n2nc(C)c(Oc3ccccc3O)c2C)n1` the AC50 was 10 µM [rising, partial curve].
In the case of `Cc1cc(C)c2c3c(c(-c4ccccc4)n2n1)c(=O)n(C)c(=O)n3C`, the AC50 is reported as 0.0501 µM [rising, partial curve, poor fit].
For `CC(C)OC(=O)c1c(NC(=O)CCn2nnc3ccccc32)sc2c1CCCC2`, the AC50 was 12.6 µM [rising, partial curve].
With `COc1ccc(CNC(=O)C2CCCN2S(=O)(=O)c2ccccc2)cc1` (stereo not drawn) the AC50 was 0.01 µM [falling, full curve].
In the case of `COc1ncc2nc(-c3ccc(Cl)cc3)c(=O)n(-c3ccccc3)c2n1`, the AC50 is reported as 25.1 µM [rising, partial curve].
In the case of `c1csc(C2C3=C(Nc4ncnn42)c2ccccc2OC3)c1` (stereo not drawn), the AC50 is reported as 3.16 µM [rising, full curve].
In the case of `COc1ccc(-c2nc(C#N)c(NCCc3ccccc3)o2)cc1OC`, the AC50 is reported as 2.51 µM [rising, full curve].
With `Cn1cccc1C(=O)OCC(=O)c1cc2ccccc2o1` the AC50 was 2.51 µM [falling, full curve].
In the case of `COc1ccc(Cl)cc1NC(=O)CSc1nnc(Cc2cccn2C)n1-c1ccc(F)cc1`, the AC50 is reported as 20 µM [falling, single point].
For `CN(C)Cc1ccccc1-c1nc(N(C)C)c2ccccc2n1`, the AC50 was 2.51 µM [rising, full curve].
With `COc1ccc(C2CC(c3ccccc3)Nc3nc(NC(=O)c4ccco4)nn32)cc1` (stereo not drawn) the AC50 was 3.16 µM [falling, partial curve].
For `O=C(NCc1cccnc1)C1CCN(S(=O)(=O)c2cccs2)CC1`, the AC50 was 0.1 µM [falling, full curve, poor fit].
For `O=C(NC1CCCCC1)C(c1ccncc1)N(CC1CCCO1)C(=O)C(F)(F)F` (stereo not drawn), the AC50 was 25.1 µM [falling, single point].
In the case of `COc1ccc(C2CC(c3cc(OC)ccc3OC)n3nnnc3N2)cc1` (stereo not drawn), the AC50 is reported as 10 µM [rising, partial curve].
In the case of `COc1ccc(Oc2ncc3nc(-c4cccc(C#N)c4)c(=O)n(CCC#N)c3n2)cc1`, the AC50 is reported as 20 µM [rising, single point].
For `CC(C)N(C)C1CCN(C(=O)Nc2ccc(Cl)c(Cl)c2)CC1`, the AC50 was 25.1 µM [falling, single point].
In the case of `COc1ccc(-c2nc3cnc(Oc4ccccc4)nc3n(CCC#N)c2=O)cc1`, the AC50 is reported as 2 µM [rising, full curve].
For `CCCCNc1cc(NC(C)=O)cc2cc(OC)c(OC)cc12`, the AC50 was 12.6 µM [rising, partial curve].
With `Cc1cc(C)c2cc(C#N)c(SCC(=O)NCc3ccco3)nc2c1` the AC50 was 12.6 µM [falling, single point].
With `COc1cccc(C(=O)NCCn2ccc3ccccc32)c1` the AC50 was 10 µM [rising, single point].
In the case of `CCCc1nc2scc(-c3ccccc3)c2c(=O)n1N`, the AC50 is reported as 7.94 µM [rising, partial curve].
With `CCOC(=O)C1CCN(C(=O)c2cnn3c(C)cc(C)nc23)CC1` the AC50 was 0.1 µM [falling, full curve].
For `COc1cc(C2C3=C(CC(C)(C)CC3=O)Nc3c2c(=O)[nH]c(=O)n3Cc2ccccc2)ccc1O` (stereo not drawn), the AC50 was 10 µM [rising, single point] and 12.6 µM [rising, single point].
With `OCCSc1ncnc2c1oc1ccccc12` the AC50 was 12.6 µM [rising, partial curve].
For `CN1CCc2c(sc3c2C(=O)NC(c2ccc4c(c2)OCO4)N3)C1` (stereo not drawn), the AC50 was 2 µM [rising, full curve].
With `Cn1c(CCNC(=O)c2ccco2)nc2cc(NC(=O)c3ccco3)ccc21` the AC50 was 0.0316 µM [falling, full curve, poor fit].
With `COc1ccc(OC)c2c(N3CCN(C)CC3)cc(C(F)(F)F)nc12` the AC50 was 10 µM [rising, partial curve].
For `CC1(C)Cc2ccccc2C(=NCCCC(=O)O)N1`, the AC50 was 0.0316 µM [rising, partial curve, poor fit].
In the case of `CC(=O)NCCNc1nc(-c2ccc3c(c2)OCO3)nc2ccccc12`, the AC50 is reported as 12.6 µM [rising, partial curve].
In the case of `Cc1nc2cnc(N3CCOCC3)nc2n(Cc2ccc(F)cc2)c1=O`, the AC50 is reported as 3.98 µM [rising, single point].
With `CCOc1ccccc1C(=O)NCC(=O)OCC(=O)c1ccc2c(c1)OCCO2` the AC50 was 15.8 µM [rising, partial curve].
With `COc1ccccc1N(CC(=O)Nc1cccnc1)S(C)(=O)=O` the AC50 was 3.98 µM [falling, partial curve].
In the case of `COCCn1c(=O)c(-c2ccc(F)cc2)nc2cnc(Nc3cccc(OC)c3)nc21`, the AC50 is reported as 3.98 µM [rising, partial curve].
In the case of `Cc1sc(NC(=O)CSc2nnc(-c3ccc(F)cc3)o2)c(C#N)c1C`, the AC50 is reported as 7.94 µM [rising, single point].
With `O=C(CCN1C(=O)C2C3C=CC(C3)C2C1=O)NCc1cccnc1` (stereo not drawn) the AC50 was 0.794 µM [falling, full curve, poor fit].
For `Cc1onc(-c2ccccc2Cl)c1C(=O)Nc1ccc(-c2nnc3n2CCCCC3)cc1`, the AC50 was 0.00794 µM [falling, full curve, poor fit].
With `CS(=O)(=O)N1CCC2(CCN(c3ccncc3)CC2)CC1` the AC50 was 5.01 µM [falling, single point].
For `COc1c(Br)cc(Br)cc1C(=O)O`, the AC50 was 0.126 µM [falling, partial curve, poor fit].
With `O=C(CNC(=O)c1cc2ccccc2o1)NCc1cccs1` the AC50 was 25.1 µM [rising, single point].
In the case of `COc1cc(C2NC(=O)NC(O)(C(F)(F)F)C2C(=O)c2ccc(Cl)cc2)ccc1O` (stereo not drawn), the AC50 is reported as 12.6 µM [rising, partial curve, poor fit].
With `COCCn1c(CCC(=O)O)nc2c1c(=O)[nH]c(=O)n2CC(C)C` the AC50 was 0.126 µM [falling, single point].
For `CCO/C=N/c1c(C#N)c(CC#N)nn1-c1ccccc1`, the AC50 was 0.398 µM [rising, full curve].
For `COCCn1c(SCC(=O)Nc2ncc(C)s2)nc2sc3c(c2c1=O)CCC3`, the AC50 was 10 µM [rising, partial curve].
For `COCCNc1nc(-c2ccc(C(=O)N(C)C)cc2)nc2ccccc12`, the AC50 was 10 µM [rising, partial curve].
For `COc1cc2nncc(SCc3ccc(Cl)c(Cl)c3)c2cc1OC`, the AC50 was 0.794 µM [rising, partial curve].
For `CCc1nnc(NC(=O)CSc2nnc(-c3cc4ccccc4cc3O)n2CCOC)s1`, the AC50 was 25.1 µM [falling, single point].
In the case of `N#Cc1ccsc1NC(=O)c1cnccn1`, the AC50 is reported as 0.501 µM [falling, full curve].
For `Cc1cc(NS(=O)(=O)c2ccc(NC(=O)c3cnc4scc(C)n4c3=O)cc2)nc(C)n1`, the AC50 was 12.6 µM [rising, single point].
For `CCN1CCN(C(=O)c2nn(-c3ccc(C)cc3)c(=O)c3c2c2ccccc2n3C)CC1`, the AC50 was 0.1 µM [falling, single point].
With `CSC1=Nc2sc3c(c2C2=NCCN12)CCCC3` the AC50 was 10 µM [rising, partial curve].
For `COc1cc(C)c(C(C)C)cc1S(=O)(=O)NCCCn1ccnc1`, the AC50 was 0.398 µM [falling, partial curve, poor fit].
For `O=C(CSc1nc(-c2ccco2)cc(C(F)(F)F)n1)N1CCc2ccccc2C1`, the AC50 was 10 µM [rising, partial curve].
In the case of `O=C(CSc1n[nH]c(=O)n1C1CC1)Nc1cc(Cl)ccc1Oc1ccccc1`, the AC50 is reported as 25.1 µM [falling, single point].
With `O=c1[nH]c(SCCOc2ccccc2)nc2ccccc12` the AC50 was 20 µM [rising, single point].
In the case of `Nc1c(C(=O)c2cccs2)oc2ccccc12`, the AC50 is reported as 10 µM [rising, partial curve].
With `CCc1nc(NC(C)C)c2oc3ccccc3c2n1` the AC50 was 0.398 µM [rising, full curve].
In the case of `O=C(CCS(=O)(=O)c1cccc2nonc12)Nc1cccc2c1CCCC2`, the AC50 is reported as 0.126 µM [falling, full curve, poor fit].
In the case of `Nc1c(S(=O)(=O)c2cccs2)c2nc3ccccc3nc2n1Cc1cccs1`, the AC50 is reported as 12.6 µM [rising, partial curve].
In the case of `Cn1c(C(=O)NCc2cccs2)cc2c(=O)n(C)c3ccccc3c21`, the AC50 is reported as 0.398 µM [rising, full curve, poor fit].
For `CCOC(=O)c1cc(-c2ccncc2)nc2c1c(C)nn2C`, the AC50 was 6.31 µM [rising, partial curve].
For `Cn1c(=O)[nH]c(=O)c2c1nc(N1CCCCCC1)n2Cc1cccc2ccccc12`, the AC50 was 12.6 µM [rising, single point].
For `O=C(CN1CCN(Cc2ccccc2)CC1)c1ccc(Br)cc1`, the AC50 was 12.6 µM [rising, single point].
With `CC(=O)Nc1ccc(Nc2nc(C)nc3c2oc2ccccc23)cc1` the AC50 was 3.16 µM [rising, single point].
